In patent US4100284A, “1,4-Dioxo- and 4-oxoquinoxaline-2-carboxaldehyde sulfonylhydrazones and certain derivatives thereof” (Pfizer Inc., priority 1977, dated 1978):
Some results were stated once for a whole list of compounds, not compound by compound.

assay: Growth promotion and feed efficiency, supplemented animal feed; format: in vivo; details: swine, sheep, steers, goats, dogs and mink; 5 to 200 g. per ton of feed, vs. unsupplemented feed

Structure (SMILES)	feed efficiency	growth
CC(=NNS(=O)(=O)c1ccc(C)cc1)c1nc2ccccc2[n+]([O-])c1C [Example 10, 2-Methylcarbonyl-3-methyl-4-oxoquinoxaline p-Toluenesulfonylhydrazone]	improved feed efficiency	accelerated growth
Cc1ccc(S(=O)(=O)NN=Cc2c[n+]([O-])c3ccccc3[n+]2[O-])cc1 [N → O, H, H, 4-CH3 C6 H4, 1,4-Dioxoquinoxaline-2-carboxaldehyde p-Toluenesulfonylhydrazone]	improved feed efficiency	accelerated growth
Cc1ccc(S(=O)(=O)NN=Cc2c[n+]([O-])c3ccccc3n2)cc1 [N, H, H, 4-CH3 C6 H4, 4-Oxoquinoxaline-2-carboxaldehyde p-Toluenesulfonylhydrazone]	improved feed efficiency	accelerated growth
COc1ccc(S(=O)(=O)NN=Cc2c[n+]([O-])c3ccccc3n2)cc1 [N, H, H, 4-CH3 OC6 H4, 4-Oxoquinoxaline-2-carboxaldehyde p-Methoxybenzenesulfonylhydrazone]	improved feed efficiency	accelerated growth
Cc1ccc(S(=O)(=O)NN=Cc2nc3ccccc3[n+]([O-])c2C)cc1 [Example 11, 3-Methyl-4-oxoquinoxaline-2-carboxaldehyde p-Toluenesulfonylhydrazone]	improved feed efficiency	accelerated growth
O=S(=O)(NN=Cc1c[n+]([O-])c2ccccc2[n+]1[O-])c1ccccc1 [N → O, H, H, C6 H5, 1,4-Dioxoquinoxaline-2-carboxaldehyde Benzenesulfonylhydrazone]	improved feed efficiency	accelerated growth
